Data as given in PubChem BioAssay AID1224827 (NIAID, 2016).
In all, the deposit lists about 3,800 reagents; below is a random part of them. In the full data, about 2,200 (57%) got an active call. 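Active means a strong reporter change in either direction; calls are per siRNA, not per gene; qiagen siRNAs gave weaker effects.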 Reagents against one gene are numbered here.

Screen: 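Identify regulators of the macrophage TNF-alpha response to bacterial LPS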 (follow-up of hits)
Cells: RAW264.7 G9 mouse macrophage reporter clone
Reagent: single siRNA against mouse genes, 100 nM siRNA
Time to read-out: siRNA for 2 days, then LPS about 16 h
Conditions: bacterial lipopolysaccharide (LPS), 10 ng/ml, cells fixed after overnight (about 16 h) stimulation
Measured: 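Imaged nuclear TNF reporter intensity, background removed, scaled per plate and to non-targeting control wells, as z-scores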
Reading the numbers: TNF reporter z-score, mean and TNF reporter z-score: higher = stronger Tnf promoter reporter signal; gene median z, three same-vendor siRNAs: higher = stronger Tnf reporter signal for the gene
Rule for the call: 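Active siRNA: replicate-mean z-score of 2 or more, or -2 or less; no calls for control wells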

gene | reagent | TNF reporter z-score, mean | gene median z, three same-vendor siRNAs | TNF reporter z-score, repeat 1 | TNF reporter z-score, repeat 2 | call
Ccr2 (C-C motif chemokine receptor 2) | 1 | 5.52 | 3.09 | 5.67 | 5.37 | active
Ccr2 (C-C motif chemokine receptor 2) | 2 | 2.9 | 3.09 | 3.88 | 1.91 | active
Ccr2 (C-C motif chemokine receptor 2) | 3 | 1.18 | 3.09 | 0.0546 | 2.3 | inactive
Ccr2 (C-C motif chemokine receptor 2) | 4 | 0.311 | -0.168 | 0.225 | 0.397 | inactive
Ccr2 (C-C motif chemokine receptor 2) | 5 | -0.157 | -0.168 | 0.247 | -0.561 | inactive
Ccr2 (C-C motif chemokine receptor 2) | 6 | -2.12 | -0.168 | -1.93 | -2.31 | active
Il17a (interleukin 17A) | 1 | -2.59 | -3.15 | -2 | -3.19 | active
Il17a (interleukin 17A) | 2 | -3.06 | -3.15 | -3.01 | -3.12 | active
Il17a (interleukin 17A) | 3 | -4.91 | -3.15 | -5.35 | -4.47 | active
Il17a (interleukin 17A) | 4 | 3.11 | 0.279 | 5.82 | 0.4 | active
Il17a (interleukin 17A) | 5 | 1.88 | 0.279 | 3.6 | 0.157 | inactive
Il17a (interleukin 17A) | 6 | -0.466 | 0.279 | 0.0977 | -1.03 | inactive
Large1 (LARGE xylosyl- and glucuronyltransferase 1) | 1 | 9.71 | -0.537 | 8.73 | 10.7 | active
Large1 (LARGE xylosyl- and glucuronyltransferase 1) | 2 | -0.537 | -0.537 | -0.519 | -0.554 | inactive
Large1 (LARGE xylosyl- and glucuronyltransferase 1) | 3 | -3.27 | -0.537 | -2.41 | -4.13 | active
Large1 (LARGE xylosyl- and glucuronyltransferase 1) | 4 | 0.454 | -0.683 | 0.649 | 0.26 | inactive
Large1 (LARGE xylosyl- and glucuronyltransferase 1) | 5 | 0.391 | -0.683 | 2.41 | -1.62 | inactive
Large1 (LARGE xylosyl- and glucuronyltransferase 1) | 6 | -2.79 | -0.683 | -3.92 | -1.67 | active
Plpp1 (phospholipid phosphatase 1) | 1 | -1.84 | -2.81 | -2.25 | -1.43 | inactive
Plpp1 (phospholipid phosphatase 1) | 2 | -3.21 | -2.81 | -3.08 | -3.35 | active
Plpp1 (phospholipid phosphatase 1) | 3 | -3.26 | -2.81 | -3.97 | -2.54 | active
Plpp1 (phospholipid phosphatase 1) | 4 | 0.322 | -2.43 | 1.43 | -0.784 | inactive
Plpp1 (phospholipid phosphatase 1) | 5 | -2.43 | -2.43 | -2.29 | -2.57 | active
Plpp1 (phospholipid phosphatase 1) | 6 | -3.88 | -2.43 | -4.24 | -3.52 | active
Elf3 (E74-like factor 3) | 1 | 2.72 | -2.09 | 2.4 | 3.05 | active
Elf3 (E74-like factor 3) | 2 | -2.93 | -2.09 | -2.08 | -3.77 | active
Elf3 (E74-like factor 3) | 3 | -2.68 | -2.09 | -3.25 | -2.1 | active
Elf3 (E74-like factor 3) | 4 | 1.08 | -0.711 | 2.76 | -0.59 | inactive
Elf3 (E74-like factor 3) | 5 | -2.06 | -0.711 | -3.28 | -0.831 | active
Elf3 (E74-like factor 3) | 6 | -1.47 | -0.711 | -0.102 | -2.84 | inactive
Nfe2l2 (nuclear factor, erythroid derived 2, like 2) | 1 | -0.309 | -2.32 | -2.25 | 1.63 | inactive
Nfe2l2 (nuclear factor, erythroid derived 2, like 2) | 2 | -2.53 | -2.32 | -2.75 | -2.32 | active
Nfe2l2 (nuclear factor, erythroid derived 2, like 2) | 3 | -2.77 | -2.32 | -3.22 | -2.32 | active
Nfe2l2 (nuclear factor, erythroid derived 2, like 2) | 4 | 0.47 | -0.41 | 2.15 | -1.21 | inactive
Nfe2l2 (nuclear factor, erythroid derived 2, like 2) | 5 | -0.41 | -0.41 | -0.565 | -0.255 | inactive
Nfe2l2 (nuclear factor, erythroid derived 2, like 2) | 6 | -0.915 | -0.41 | 0.217 | -2.05 | inactive
Rbl2 (RB transcriptional corepressor like 2) | 1 | -0.467 | -1.72 | -0.979 | 0.0453 | inactive
Rbl2 (RB transcriptional corepressor like 2) | 2 | -1.84 | -1.72 | -2.25 | -1.43 | inactive
Rbl2 (RB transcriptional corepressor like 2) | 3 | -2.85 | -1.72 | -3.7 | -2.01 | active
Rbl2 (RB transcriptional corepressor like 2) | 4 | 3.34 | 1.19 | 5.28 | 1.41 | active
Rbl2 (RB transcriptional corepressor like 2) | 5 | 1.12 | 1.19 | 2.21 | 0.0259 | inactive
Rbl2 (RB transcriptional corepressor like 2) | 6 | 0.414 | 1.19 | 0.974 | -0.147 | inactive
Ube2d3 (ubiquitin-conjugating enzyme E2D 3) | 1 | -3.65 | -4.19 | -3.73 | -3.56 | active
Ube2d3 (ubiquitin-conjugating enzyme E2D 3) | 2 | -4.03 | -4.19 | -3.42 | -4.64 | active
Ube2d3 (ubiquitin-conjugating enzyme E2D 3) | 3 | -5.94 | -4.19 | -4.88 | -6.99 | active
Ube2d3 (ubiquitin-conjugating enzyme E2D 3) | 4 | 3.84 | 2.59 | 7.11 | 0.573 | active
Ube2d3 (ubiquitin-conjugating enzyme E2D 3) | 5 | 3.16 | 2.59 | 5.61 | 0.717 | active
Ube2d3 (ubiquitin-conjugating enzyme E2D 3) | 6 | 2.14 | 2.59 | 4.47 | -0.196 | active
Pura (purine rich element binding protein A) | 1 | -3.06 | -4.83 | -4 | -2.12 | active
Pura (purine rich element binding protein A) | 2 | -4.99 | -4.83 | -5.03 | -4.94 | active
Pura (purine rich element binding protein A) | 3 | -5.1 | -4.83 | -4.73 | -5.47 | active
Pura (purine rich element binding protein A) | 4 | 1.7 | -1.5 | 4.94 | -1.54 | inactive
Pura (purine rich element binding protein A) | 5 | -2.2 | -1.5 | -3.15 | -1.24 | active
Pura (purine rich element binding protein A) | 6 | -2.31 | -1.5 | -3.14 | -1.47 | active
Gpr83 (G protein-coupled receptor 83) | 1 | -3.51 | -4.42 | -3.05 | -3.97 | active
Gpr83 (G protein-coupled receptor 83) | 2 | -4.45 | -4.42 | -4.65 | -4.25 | active
Gpr83 (G protein-coupled receptor 83) | 3 | -4.6 | -4.42 | -4.61 | -4.6 | active
Gpr83 (G protein-coupled receptor 83) | 4 | 3.18 | -0.0854 | 4.42 | 1.94 | active
Gpr83 (G protein-coupled receptor 83) | 5 | -0.0854 | -0.0854 | 0.25 | -0.421 | inactive
Gpr83 (G protein-coupled receptor 83) | 6 | -1.14 | -0.0854 | -1.45 | -0.827 | inactive
